The shares of active, inactive and inconclusive entries below differ from those in the screen. For some of these results: Potencies of inconclusive entries are doubtful fits and often do not repeat. The source made the active and inactive calls. Unless noted, no cut-off is given here; in the data, nearly all actives have AC50 up to about 26 µM.
Assays:
[1] = growth inhibition of DIPG glioma cells, dose response, cell-based, SU-DIPG-XVII, MIPE5.0, CellTiter-Glo, qHTS (AID 1347060); conditions: SU-DIPG-XVII viability, CellTiter-Glo ATP luminescence;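 for AC50: cells exposed to compound for 48 hours before viability readout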
[2] = growth inhibition of DIPG glioma cells, dose response, cell-based, SU-DIPG-XIII, MIPE4.0, CellTiter-Glo, qHTS (AID 1347061; cut-off not given, nearly all actives have AC50 up to about 37 µM;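 note: cells exposed to compound for 48 hours before readout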); conditions: SU-DIPG-XIII viability, CellTiter-Glo ATP luminescence
[3] = growth inhibition of DIPG glioma cells, dose response, cell-based, SU-DIPG-IV, MIPE4.0, CellTiter-Glo, qHTS (AID 1347063; cut-off not given, nearly all actives have AC50 up to about 30 µM;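 note: compound exposure lasted 48 hours before the viability readout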); conditions: SU-DIPG-IV viability, CellTiter-Glo ATP luminescence
[4] = growth inhibition of DIPG glioma cells, dose response, cell-based, SU-DIPG-XIII, MIPE5.0, CellTiter-Glo, qHTS (AID 1347064; cut-off not given, nearly all actives have AC50 up to about 23 µM;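 for AC50: cells exposed to compound for 48 hours before the viability read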); conditions: SU-DIPG-XIII viability, CellTiter-Glo ATP luminescence
[5] = viability loss in pontine glioma line – cell-based, SU-DIPG-XXV, MIPE5.0, CellTiter-Glo, qHTS, dose response (AID 1347065); conditions: CellTiter-Glo ATP luminescence;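 note: cells exposed to compound for 48 hours before ATP readout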
[6] = JHH-DIPG-1 glioma cell viability, MIPE5.0 library, CellTiter-Glo luminescence, qHTS (AID 1347067); conditions: JHH-DIPG-1 glioma viability, CellTiter-Glo ATP luminescence;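 note: cells exposed to compound for 48 hours before readout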
[7] = SU-DIPG-VI glioma cell viability, MIPE4.0 library, CellTiter-Glo luminescence, qHTS (AID 1347066; cut-off not given, nearly all actives have AC50 up to about 30 µM;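 note: cells exposed to compound for 48 hours before readout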); conditions: CellTiter-Glo ATP luminescence
[8] = SU-DIPG-XXV glioma cell viability, MIPE5.0 library, qHTS (AID 1347068; cut-off not given, nearly all actives have IC50 up to about 30 µM;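 for IC50: cells exposed to compound for 48 hours before viability readout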)
[9] = inhibitors of polyQ aggregate elongation, biochemical, solid-phase synthetic aggregates, QA3 (AID 1585; call rule not given here); conditions: biotin-polyQ incorporation, at 100 µM, active compounds read high
[10] = polyglutamine aggregation reduction, turbidity readout, qthio, single concentration 25 µM screen (AID 1588; call rule not given here); conditions: at 25 µM, active compounds read low
[11] = enhancers of SMN2 over SMN1 splicing, cell-based, SMN2/SMN1 luciferase reporters (AID 1598; call rule not given here); conditions: SMN2 vs SMN1 luciferase splicing reporter cells; at 10 µM; active compounds read high
[12] = mitochondrial permeability transition inhibitors (AID 1580; call rule not given here); conditions: isolated mitochondria, permeability transition inhibition; active call at 10 uM (0/1): at 10 µM, active compounds read high
[13] = protection of motor neurons from glutamate death, cell-based, TUNEL DNA degradation staining, MNGlu (AID 1594; call rule not given here); conditions: glutamate-induced death, at 1 µM, active compounds read high

OC[C@H](Cc1ccccc1)Nc1nc(Oc2ccc3c(c2)CCC3)nc2c1ncn2Cc1ccc(-c2ccccc2)cc1
inconclusive: AC50 [1] 7.42 µM [cytotoxic] | AC50 [3] 11.8 µM [cytotoxic] | AC50 [4] 18.6 µM [cytotoxic] | AC50 [5] 2.95 µM [cytotoxic] | AC50 [6] 0.295 µM [cytotoxic]
inactive: outcome [2]

Fc1ccc(Cl)cc1-c1nc(Nc2ccncc2)c2nccnc2n1
active: AC50 [1] 23.5 µM
inconclusive: AC50 [4] 3.32 µM [cytotoxic] | AC50 [5] 6.61 µM [cytotoxic] | AC50 [6] 2.63 µM [cytotoxic]
inactive: outcome [2] | outcome [3]

Nc1nc(F)nc2c1ncn2[C@@H]1O[C@H](COP(=O)(O)O)[C@@H](O)[C@@H]1O
active: AC50 [1] 18.6 µM
inactive: outcome [7]
inconclusive: AC50 [2] 14.8 µM [cytotoxic] | AC50 [3] 20.9 µM [cytotoxic] | AC50 [4] 9.34 µM [cytotoxic]

C[C@]12CC[C@H](O)CC1=CCC1C2CC[C@]2(C)C(n3cnc4ccccc43)=CCC12 (some centres undefined)
inactive: outcome [2] | outcome [3]
inconclusive: AC50 [1] 33.2 µM [cytotoxic] | AC50 [4] 29.5 µM [cytotoxic] | AC50 [7] 0.00105 µM [cytotoxic] | AC50 [6] 23.5 µM [cytotoxic]

Nc1nc(N)nc(-c2cc(Cl)ccc2Cl)n1
inactive: outcome [1] | outcome [2] | outcome [8]
inconclusive: AC50 [3] 0.0833 µM [cytotoxic] | AC50 [4] 4.17 µM [cytotoxic] | AC50 [5] 37.2 µM

CC(=O)OCC(=O)[C@@]12N=C(C)O[C@@H]1C[C@H]1[C@@H]3CCC4=CC(=O)C=C[C@]4(C)[C@H]3[C@@H](O)C[C@@]12C
inactive: outcome [1] | outcome [2] | outcome [4]
inconclusive: AC50 [3] 0.235 µM | AC50 [5] 0.132 µM [cytotoxic] | AC50 [6] 4.68 µM [cytotoxic]

Nc1nc(OCc2ccccc2)c2[nH]cnc2n1
inactive: outcome [3] | outcome [5] | outcome [6]
inconclusive: AC50 [1] 0.0934 µM [cytotoxic] | AC50 [2] 23.5 µM [cytotoxic] | AC50 [4] 0.468 µM

O=c1[nH]cc(F)c(=O)[nH]1
inactive: outcome [2] | outcome [4] | outcome [5] | outcome [8]
inconclusive: inhibition [9] -16.9% | aggregation (% of control) [10] 96.7% | SMN2/SMN1 luciferase ratio [11] 1.14 | AC50 [1] 37.2 µM [cytotoxic] | AC50 [3] 13.2 µM [cytotoxic]

CC(c1cc2ccccc2s1)N(O)C(N)=O (centres undefined)
inactive: outcome [2] | outcome [3]
inconclusive: AC50 [1] 0.00132 µM | AC50 [4] 0.00166 µM | AC50 [5] 0.00166 µM | AC50 [6] 0.00186 µM | IC50 [8] 0.0525 µM

COc1cc(Oc2ccnc3cc(OC)c(OC)cc23)ccc1NC(=O)NC(C)c1nccs1 (centres undefined)
inactive: outcome [2] | outcome [4] | outcome [6] | outcome [8]
inconclusive: AC50 [1] 37.2 µM [cytotoxic] | AC50 [3] 20.9 µM [cytotoxic] | AC50 [5] 23.5 µM [cytotoxic]

CN1CCN(CCCN2c3ccccc3Sc3ccc(C(F)(F)F)cc32)CC1
inconclusive: active call at 10 uM (0/1) [12] 1 | inhibition [9] 8.81% | aggregation (% of control) [10] 98.3% | protection [13] 5% | SMN2/SMN1 luciferase ratio [11] 1.01 | AC50 [1] 20.9 µM [cytotoxic] | AC50 [3] 0.00105 µM | AC50 [4] 33.2 µM [cytotoxic] | IC50 [8] 37.2 µM [cytotoxic]
active: AC50 [2] 18.7 µM | AC50 [5] 18.6 µM

CC(=O)OCC(=O)[C@@]12OC(C)(C)O[C@@H]1C[C@H]1[C@@H]3C[C@H](F)C4=CC(=O)C=C[C@]4(C)[C@@]3(F)[C@@H](O)C[C@@]12C
inconclusive: AC50 [1] 33.2 µM [cytotoxic] | AC50 [3] 0.00662 µM | AC50 [6] 37.2 µM [cytotoxic]
inactive: outcome [2] | outcome [4] | outcome [5]

COc1cc2c(cc1Cc1cccc(Cl)c1F)c(=O)c(C(=O)O)cn2[C@H](CO)C(C)C
active: AC50 [6] 26.3 µM
inconclusive: AC50 [1] 23.5 µM [cytotoxic] | AC50 [2] 29.6 µM [cytotoxic] | AC50 [3] 29.6 µM [cytotoxic] | AC50 [4] 0.00118 µM [cytotoxic] | AC50 [5] 18.6 µM [cytotoxic] | IC50 [8] 37.2 µM [cytotoxic]

COCCOC(=O)C1=C(C)NC2=C(C(=O)CC(c3ccccc3OC)C2)C1c1cccc(O)c1 (centres undefined)
inconclusive: AC50 [1] 29.5 µM [cytotoxic] | AC50 [2] 16.6 µM [cytotoxic] | AC50 [3] 16.6 µM [cytotoxic] | AC50 [4] 0.00525 µM [cytotoxic] | AC50 [5] 6.61 µM [cytotoxic] | AC50 [6] 16.6 µM [cytotoxic]
inactive: outcome [8]

O=C(Nc1cccc(Nc2ncc(Br)c(NCCc3cnc[nH]3)n2)c1)N1CCCC1
inconclusive: AC50 [4] 7.42 µM [cytotoxic]
active: AC50 [1] 4.17 µM | AC50 [2] 16.6 µM | AC50 [3] 16.6 µM | AC50 [7] 14.8 µM | AC50 [6] 3.72 µM

CC(C)(C)C(=O)Oc1ccc2c(c1)nc(NC(=O)c1cccc([N+](=O)[O-])c1)n2CCCO
inactive: outcome [2] | outcome [6]
inconclusive: AC50 [1] 26.3 µM [cytotoxic] | AC50 [3] 13.2 µM [cytotoxic] | AC50 [4] 9.34 µM [cytotoxic] | AC50 [5] 37.2 µM [cytotoxic]

CC(C)(C)c1nc(-c2cccc(NS(=O)(=O)c3c(F)cccc3F)c2F)c(-c2ccnc(N)n2)s1
inactive: outcome [6]
inconclusive: AC50 [1] 11.8 µM [cytotoxic] | AC50 [2] 14.8 µM [cytotoxic] | AC50 [3] 0.00132 µM | AC50 [4] 0.742 µM [cytotoxic] | AC50 [7] 16.6 µM [cytotoxic]

C=C1C[C@@]2(O)O[C@@]3(C[C@H]2C(C)C)[C@@H](C)CC[C@@H]13
inactive: outcome [2] | outcome [3] | outcome [4]
inconclusive: AC50 [1] 0.00118 µM | AC50 [5] 10.5 µM | AC50 [6] 0.0417 µM

Cn1cc(/C=C/C(=O)c2cccc(F)c2)cc1/C=C/C(=O)NO
inconclusive: AC50 [2] 18.7 µM [cytotoxic] | AC50 [3] 7.43 µM [cytotoxic] | IC50 [8] 6.61 µM [cytotoxic]
active: AC50 [1] 3.72 µM | AC50 [4] 2.35 µM | AC50 [5] 5.25 µM | AC50 [6] 13.2 µM

O=c1oc2c(O)c(O)cc3c(=O)oc4c(O)c(O)cc1c4c23
inconclusive: AC50 [3] 13.2 µM [cytotoxic]
inactive: outcome [1] | outcome [2] | outcome [4] | outcome [7]

CC(COc1ccccc1)N(CCCl)Cc1ccccc1 (centres undefined)
inactive: outcome [1] | outcome [2] | outcome [5]
inconclusive: inhibition [9] 37.5% | aggregation (% of control) [10] 113% | SMN2/SMN1 luciferase ratio [11] 0.95 | AC50 [3] 13.2 µM [cytotoxic]

Already shown: two of the compounds above.
CC(C)(C)c1nc(-c2cccc(NS(=O)(=O)c3c(F)cccc3F)c2F)c(-c2ccnc(N)n2)s1
inactive: outcome [6]
inconclusive: AC50 [1] 11.8 µM [cytotoxic] | AC50 [2] 14.8 µM [cytotoxic] | AC50 [3] 0.00132 µM | AC50 [4] 0.742 µM [cytotoxic] | AC50 [7] 16.6 µM [cytotoxic]

C=C1C[C@@]2(O)O[C@@]3(C[C@H]2C(C)C)[C@@H](C)CC[C@@H]13
inactive: outcome [2] | outcome [3] | outcome [4]
inconclusive: AC50 [1] 0.00118 µM | AC50 [5] 10.5 µM | AC50 [6] 0.0417 µM

Carrying on.

CNC1CCC(N(Cc2cccc(-c3ccncc3)c2)C(=O)c2sc3c(F)ccc(F)c3c2Cl)CC1 (centres undefined)
active: AC50 [1] 23.5 µM | AC50 [2] 14.8 µM | AC50 [3] 23.5 µM
inconclusive: AC50 [4] 37.2 µM [cytotoxic] | IC50 [8] 37.2 µM [cytotoxic]

O=S(=O)(O)CCS
inactive: outcome [1] | outcome [3] | outcome [5] | outcome [6]
inconclusive: inhibition [9] -8.43% | aggregation (% of control) [10] 95.8% | SMN2/SMN1 luciferase ratio [11] 0.94 | AC50 [2] 0.935 µM

N[C@@H](Cc1cc(I)c(Oc2cc(I)c(O)c(I)c2)c(I)c1)C(=O)O
inconclusive: AC50 [3] 5.9 µM [cytotoxic] | AC50 [7] 0.0418 µM [cytotoxic]
inactive: outcome [1] | outcome [2] | outcome [6] | outcome [8]

CCCCOCCOc1nc(-c2ccc(C(=O)O)c(F)c2)sc1C
inconclusive: AC50 [1] 0.934 µM [cytotoxic] | AC50 [2] 16.6 µM [cytotoxic] | AC50 [3] 13.2 µM [cytotoxic] | AC50 [5] 0.468 µM [cytotoxic] | AC50 [7] 4.69 µM [cytotoxic]

Cn1c(=O)c2c(ncn2CC(O)CO)n(C)c1=O (centres undefined)
inconclusive: inhibition [9] 27.8% | aggregation (% of control) [10] 97.7% | SMN2/SMN1 luciferase ratio [11] 1.15 | AC50 [1] 0.00118 µM
inactive: outcome [2] | outcome [3] | outcome [5]

Reference: PubChem BioAssay
